# Source: PubChem BioAssay AID445 (National Center for Advancing Translational Sciences (NCATS), 2006)
# Some of the results follow. The main result of the screen is listed elsewhere. These columns were measured beside it and carry no call. Compounds called inactive in the main read-out are mostly missing here. The note in brackets gives the kind of curve behind each potency; many fits are weak.
# Test: IkB Signaling
# Settings: ABC-DLBCL IkBa-CBG/CBR dual luciferase ratio (green luciferase fused to IkBa over red control in OCI-Ly3 lymphoma cells), 4 h
# Method in brief: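 Luminescence ratio of IκBα-fused green versus native red beetle luciferase in OCI-Ly3 cells, 4 h post-doxycycline with compound; red signal alone, scaled from basal (0%) to zero light (-100%), flagged nonspecific or cytotoxic effects.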
# [1] = measured here: control luc red channel unless noted
# [2] = measured here: IkB-luc green channel
# [3] = measured here: control luc red channel
smiles,measurement,setting,value
O=C(COc1ccccc1Cl)NCC1(N2CCOCC2)CCCCC1,AC50,[1],"20 µM [falling, single point]"
O=C(NCCc1ccccc1)c1cnc2sc(N3CCCC3)nn2c1=O,AC50,[1],"1.26 µM [rising, partial curve]"
CCCc1nn2c(=O)cc(COC(=O)c3cccc(NC(=O)COc4ccccc4C)c3)nc2s1,AC50,[1],"31.6 µM [falling, partial curve]"
CCOC(=O)c1c(C)[nH]c(CCC(=O)Nc2cc(C)ccc2OC)c1C,AC50,[1],"0.0126 µM [falling, full curve, poor fit]"
c1ccc(-c2ccc(-n3ccnc3)cc2)cc1,AC50,[1],"1 µM [rising, partial curve]"
CCN(CC)S(=O)(=O)c1ccc2oc(C(=O)NCC3COc4ccccc4O3)c(C)c2c1 (centres undefined),AC50,[1],"7.94 µM [falling, partial curve]"
COc1cc(NC(=O)CC2C(=O)N(c3ccc(Cl)cc3)C(=O)N2Cc2cccs2)cc(OC)c1 (centres undefined),AC50,[1],"25.1 µM [falling, partial curve]"
Cc1ccc(C(=O)NCc2ccc(N(C)C)cc2)cc1NC(=O)c1nsc2ccccc12,AC50,[1],"1 µM [falling, partial curve]"
CN1C(C(=O)Nc2ccc(F)cc2F)=CC(c2ccco2)=NS1(=O)=O,AC50,[1],"15.8 µM [falling, partial curve]"
O=C(CSCc1ccccc1Cl)N1CCN(c2ccc(F)cc2)CC1,AC50,[1],"25.1 µM [falling, single point]"
Cc1cccc(C)c1NC(=O)c1oc2ccc3c(c2c1C)C(=O)CC(C)(C)O3,AC50,[1],"20 µM [falling, single point]"
O=C(Cn1ncc2c1-c1ccccc1OC2)N1CCN(c2ccccc2F)CC1,AC50,[1],"25.1 µM [falling, single point]"
COc1ccccc1CNC(=O)C1CCCN(S(=O)(=O)c2ccc3c(c2)CCCN3C(C)=O)C1 (centres undefined),AC50,[1],"0.1 µM [falling, full curve, poor fit]"
O=C(CSc1nc2ccccc2o1)Nc1ccccc1N1CCCCCC1,AC50,[1],"25.1 µM [falling, partial curve]"
CCc1nn2c(=O)cc(COC(=O)c3cccc(NC(=O)c4ccccc4Cl)c3)nc2s1,AC50,[1],"15.8 µM [falling, single point]"
Cc1ccc(CNC(=O)C2CCCN(S(=O)(=O)c3cccc4nsnc34)C2)cc1 (centres undefined),AC50,[1],"5.01 µM [falling, partial curve]"
CCCn1ccc2c(OCC(=O)NCc3ccc(C)cc3)cccc2c1=O,AC50,[1],"1.26 µM [falling, partial curve, poor fit]"
Cc1cccc(NC(=O)c2ccc(N(Cc3ccccc3)S(C)(=O)=O)cc2)c1,AC50,[1],"15.8 µM [falling, partial curve]"
CCN(CCCNC(=O)c1cc2c(=O)n(C)c3ccccc3c2s1)Cc1ccccc1,AC50,[1],"20 µM [falling, partial curve]"
Cc1ccc2c(c1)C(c1ccc(F)cc1)N(C(=O)COc1ccc(Cl)cc1Cl)CC(=O)N2 (centres undefined),AC50,[1],"10 µM [falling, partial curve]"
Cc1cc2ncn(CCCCOc3ccccc3)c2cc1C,AC50,[1],"39.8 µM [falling, single point]"
Cc1ccccc1COC(=O)c1nn(-c2ccccc2)nc1N,AC50,[1],"0.631 µM [rising, full curve]"
Cc1ccc(OCc2nnc(SCC(=O)Nc3ccc4c(c3)OCCO4)n2Cc2ccco2)cc1,AC50,[1],"25.1 µM [falling, partial curve]"
Cc1nn(CC(=O)NC2CCC(C)CC2)c(=O)c2c1sc1ccccc12 (centres undefined),AC50,[1],"15.8 µM [falling, single point]"
CCn1cc2nc(SCC(=O)Nc3cc(OC)cc(OC)c3)n(Cc3ccc(Cl)cc3)c(=O)c2n1,AC50,[1],"3.98 µM [falling, full curve]"
Cc1ccc2oc(-c3ccc(NC(=O)CCC(=O)O)cc3)nc2c1,AC50,[1],"1.58 µM [falling, full curve]"
Nc1ncn([C@H]2O[C@@H](CO)[C@@H](O)[C@@H]2O)c(=O)n1,AC50,[2],"1.58 µM [rising, partial curve]"
same,AC50,[3],"10 µM [falling, partial curve]"
CCOc1ccc(NC(=O)c2sc3nc4n(c(=O)c3c2C)CCC4)cc1,AC50,[1],"15.8 µM [falling, partial curve, poor fit]"
Cc1nn(Cc2ccc(Cl)c(Cl)c2)c(C)c1NC(=O)c1cc(CC(C)C)on1,AC50,[1],"15.8 µM [falling, partial curve]"
Cc1cccc(CN2C(=O)c3ccccc3Sc3ccc(C(=O)NC4CCCCC4)cc32)c1,AC50,[1],"3.16 µM [falling, full curve]"
CNc1ncnc2ccc(-c3cccc(NS(C)(=O)=O)c3)cc12,AC50,[2],"5.01 µM [rising, partial curve]"
same,AC50,[3],"3.16 µM [rising, partial curve]"
CC(C)(C)c1ccc(C(=O)NCC(c2cccnc2)N2CCc3ccccc3C2)cc1 (centres undefined),AC50,[1],"0.02 µM [rising, full curve]"
O=C(Nc1ccc2nc(SCC(=O)N3CCOCC3)sc2c1)c1cccc(Br)c1,AC50,[1],"5.01 µM [falling, partial curve]"
CCN(C(=O)C1CCN(S(=O)(=O)c2cc(Br)cc3c2N(C(C)=O)CC3)CC1)c1cccc(C)c1,AC50,[1],"25.1 µM [falling, partial curve]"
CCC(=O)C1=C(c2ccc(F)cc2)N(C(=O)CC)n2c(nnc2-c2ccc(OC)cc2)S1,AC50,[1],"2.51 µM [falling, full curve]"
COc1ccc(-c2cnc(C)o2)cc1S(=O)(=O)Nc1ccc(NC(C)=O)cc1,AC50,[1],"5.01 µM [rising, full curve, poor fit]"
Cn1c(=O)oc2cc(S(=O)(=O)CCC(=O)N3CCN(c4ccccc4F)CC3)ccc21,AC50,[1],"3.16 µM [falling, single point]"
O=C(CCS(=O)(=O)c1ccc(Br)cc1)Nc1ccc(F)cc1F,AC50,[1],"39.8 µM [falling, single point]"
Cc1ccc(-c2nc3ncccn3c2Nc2ccc3c(c2)OCCO3)cc1,AC50,[1],"10 µM [falling, partial curve]"
CCc1ccc(CNc2ccc3c(c2)ncn3C(C)(C)C)cc1,AC50,[1],"7.94 µM [rising, partial curve, poor fit]"
O=C1CC(c2nc(-c3ccccc3)no2)CN1c1ccccc1 (centres undefined),AC50,[1],"10 µM [falling, partial curve]"
CCOc1ccc(N2CC(c3nc4ccccc4n3CCOc3ccccc3OC)CC2=O)cc1 (centres undefined),AC50,[1],"31.6 µM [falling, single point]"
CCc1cc(=O)oc2cc(C)cc(O)c12,AC50,[1],"3.98 µM [rising, partial curve]"
Cc1ccc(-c2nn3c(C)nnc3s2)cc1NC(=O)c1ccc(OC(C)C)cc1,AC50,[1],"15.8 µM [falling, partial curve]"
N#C/C(=C\NC(=S)c1ccncc1)c1nc2ccccc2s1,AC50,[1],"0.316 µM [falling, full curve]"
CCOc1ccc(CCNC(=O)CS(=O)(=O)Cc2nc(-c3ccc(OC)cc3)oc2C)cc1,AC50,[1],"12.6 µM [falling, partial curve]"
COc1ccc(-c2nc(CSCC(=O)N3CCN(c4cc(Cl)ccc4C)CC3)c(C)o2)cc1,AC50,[1],"15.8 µM [falling, partial curve]"
Cc1ccc(C(C)C)c(OCC(O)CN2CCN(c3ccccc3F)CC2)c1 (centres undefined),AC50,[1],"31.6 µM [falling, single point]"
CCOc1ccc(CCNC(=O)CN2C(=O)COc3ccc(S(=O)(=O)N4CCCC4)cc32)cc1,AC50,[1],"20 µM [falling, partial curve]"
Cc1cccc(-c2nc(C)c(CCNC(=O)C(=O)Nc3ccccc3C#N)s2)c1,AC50,[1],"0.631 µM [rising, partial curve, poor fit]"
Cc1[nH]nc2c1C(C1CC=CCC1)C(C#N)=C(N)O2 (centres undefined),AC50,[1],"7.94 µM [falling, full curve]"
Cc1ccc2[nH]c(=O)c(CN(Cc3ccc4c(c3)OCO4)Cc3nnnn3C3CCCC3)cc2c1,AC50,[1],"31.6 µM [falling, partial curve]"
COc1ccc(Cl)cc1S(=O)(=O)NCc1ccc2c(c1)CCN2C(=O)c1cccc(C)c1,AC50,[1],"25.1 µM [falling, partial curve]"
CCOC(=O)c1ccc(N2C(=O)c3n[nH]c(-c4ccco4)c3C2c2cccc(OC)c2)cc1 (centres undefined),AC50,[1],"15.8 µM [falling, partial curve]"
COCCCNC(=O)c1ccc(-c2nc(CS(=O)(=O)c3ccc(C)cc3)c(C)o2)cc1,AC50,[1],"0.126 µM [rising, full curve, poor fit]"
CCOC(=O)c1cccc(NC(=O)CN(c2ccc(C)cc2)S(=O)(=O)c2c(C)n[nH]c2C)c1,AC50,[1],"1 µM [falling, partial curve]"
CCn1c(C(=O)N2CCC(C(=O)NCCc3ccc(C)cc3)CC2)cc2sccc21,AC50,[1],"25.1 µM [falling, single point]"
N#Cc1c(C(F)(F)F)cc(-c2ccc(F)cc2)nc1SCC(=O)Nc1ccccc1,AC50,[1],"7.94 µM [falling, full curve]"
COc1ccccc1C(=O)Nc1cccc(C(=O)OCc2cc(=O)n3ccsc3n2)c1,AC50,[1],"3.16 µM [falling, full curve]"
CCOC(=O)C1CCCN(C(=O)c2sc3nc(-c4ccccc4)cn3c2C)C1 (centres undefined),AC50,[1],"25.1 µM [falling, partial curve]"
C(=C\c1ccccc1)/CSc1nnc(-c2ccccn2)n1Cc1ccco1,AC50,[1],"39.8 µM [falling, single point]"
COc1ccc(-c2nc(CS(=O)(=O)CC(=O)NCc3ccccc3Br)c(C)o2)cc1,AC50,[1],"39.8 µM [falling, partial curve]"

# 3 neighbouring records from above:
smiles,measurement,setting,value
CCN(C(=O)C1CCN(S(=O)(=O)c2cc(Br)cc3c2N(C(C)=O)CC3)CC1)c1cccc(C)c1,AC50,[1],"25.1 µM [falling, partial curve]"
CCC(=O)C1=C(c2ccc(F)cc2)N(C(=O)CC)n2c(nnc2-c2ccc(OC)cc2)S1,AC50,[1],"2.51 µM [falling, full curve]"
COc1ccc(-c2cnc(C)o2)cc1S(=O)(=O)Nc1ccc(NC(C)=O)cc1,AC50,[1],"5.01 µM [rising, full curve, poor fit]"

# 2 entries from above, reformatted.
smiles	measurement	setting	value
O=C(Cn1ncc2c1-c1ccccc1OC2)N1CCN(c2ccccc2F)CC1	AC50	[1]	25.1 µM [falling, single point]
Cc1cc2ncn(CCCCOc3ccccc3)c2cc1C	AC50	[1]	39.8 µM [falling, single point]
